The record followed here is article PMC13280575, “The PER2:BRCA1:POU2F1(OCT-1) ternary complex represents a multi-component scaffold model for circadian gene regulation”.

Chains of the proteins cited; added tags and fusions are not shown. Lines headed by an entry give the natural chain unless they say otherwise; changes in a name come on top.
UniProt P14859: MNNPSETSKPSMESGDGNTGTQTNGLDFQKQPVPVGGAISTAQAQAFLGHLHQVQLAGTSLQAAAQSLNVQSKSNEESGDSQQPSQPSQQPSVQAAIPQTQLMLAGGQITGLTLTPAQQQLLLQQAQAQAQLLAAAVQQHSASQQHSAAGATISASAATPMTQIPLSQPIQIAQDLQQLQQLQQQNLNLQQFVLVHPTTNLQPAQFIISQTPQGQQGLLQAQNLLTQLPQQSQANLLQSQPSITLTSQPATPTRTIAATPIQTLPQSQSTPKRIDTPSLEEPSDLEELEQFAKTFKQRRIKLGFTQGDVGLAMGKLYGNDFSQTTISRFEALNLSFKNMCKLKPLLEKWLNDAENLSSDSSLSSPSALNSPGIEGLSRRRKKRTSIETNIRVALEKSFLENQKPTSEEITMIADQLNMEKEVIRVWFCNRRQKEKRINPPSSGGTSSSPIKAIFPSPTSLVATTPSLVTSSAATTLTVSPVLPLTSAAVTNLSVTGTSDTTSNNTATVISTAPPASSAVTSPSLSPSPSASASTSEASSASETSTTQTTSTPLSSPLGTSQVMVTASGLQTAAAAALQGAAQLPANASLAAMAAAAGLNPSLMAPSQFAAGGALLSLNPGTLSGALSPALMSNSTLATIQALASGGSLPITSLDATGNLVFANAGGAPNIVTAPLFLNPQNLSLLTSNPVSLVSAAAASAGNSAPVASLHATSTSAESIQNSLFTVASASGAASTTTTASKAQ

Assay in all cases: EMSA
A general note: In EMSA bound probe runs differently from free probe, usually more slowly.

The target in data set [1] is T1, POU RQE-AAA triple mutant R299A,Q306A,E330A (Homo sapiens) (UniProt P14859).
T1 sequence (looked up, limits assumed): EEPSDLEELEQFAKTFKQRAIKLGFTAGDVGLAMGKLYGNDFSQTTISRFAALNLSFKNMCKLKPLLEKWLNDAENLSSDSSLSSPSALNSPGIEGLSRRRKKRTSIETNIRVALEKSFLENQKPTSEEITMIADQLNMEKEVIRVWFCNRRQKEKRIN
As to conditions: 100 ng protein, text: severely impaired or abolished; EMSA: 20 mM HEPES pH 7.9, 2 mM MgCl2, 10% glycerol, 2 mM DTT, 36 ng poly(dI-dC), 20 min room temperature; 5% native gel, 0.5x TBE, 4 C; recombinant protein; protein details: as P1; label: 5'-32P.

Data set [2] addresses T2, POU Q306A (Homo sapiens) (UniProt P14859).
T2 sequence (looked up, limits assumed): T1 sequence (looked up, limits assumed) with A20R, A51E
The note with it: 100 ng protein, text: severely impaired or abolished; EMSA: 20 mM HEPES pH 7.9, 2 mM MgCl2, 10% glycerol, 2 mM DTT, 36 ng poly(dI-dC), 20 min room temperature; 5% native gel, 0.5x TBE, 4 C; recombinant protein; protein details: as P1; label: 5'-32P.

For data set [3], the system named is POU2F1 (OCT-1) POU DNA-binding domain, wild type + PER2(683-872). The note with it: no super-shifted ternary PER2(683-872):POU:DNA species in either order of addition; EMSA: 20 mM HEPES pH 7.9, 2 mM MgCl2, 10% glycerol, 2 mM DTT, 36 ng poly(dI-dC), 20 min room temperature; 5% native gel, 0.5x TBE, 4 C; recombinant protein; label: 5'-32P.

Where a chain is given by its changes, count along the chain named. For at least one entry, the source does not settle the construct or the ends of the probe. For part of these data: A negative result means that nothing was seen under these conditions. For part of these data: The comparison behind a weaker result is the experiment's own reference, which may not be listed here. For part of these data: Tags and fusion partners may be left off the protein sequences shown.

As to “GCTATGGCCTATGCATATGAAGCCTTTATT (double strand) [ESR1 promoter POU2F1 element probe (-56 to -42)]”, the binding result in data set [1] was “binds more weakly”; in data set [2], “binds more weakly”; in data set [3], “no binding”.
